Measurements taken from publication PMC11894074.
No constants are given. Whether binding was seen depends on the method and setting. Binding seen in cells or lysates may run through a third protein. Some results given as binding are weak or reduced against the parent protein; the word gives no strength. For some of these results: Where a sequence is shown, tags or fusion partners need not be part of it.

Experiments:
[1] = biological target: T1, aldo-keto reductase family 1 member C1 (AKR1C1) (human (endogenous in QBC939)) (UniProt Q04828); test: co-IP; endogenous proteins in QBC939 cell lysates; NP-40 lysis buffer, primary antibody or IgG control overnight at 4 °C, Protein A/G magnetic beads, PBST washes; immunoblot with antibodies against AKR1C1 and CYP1B1
T1 sequence: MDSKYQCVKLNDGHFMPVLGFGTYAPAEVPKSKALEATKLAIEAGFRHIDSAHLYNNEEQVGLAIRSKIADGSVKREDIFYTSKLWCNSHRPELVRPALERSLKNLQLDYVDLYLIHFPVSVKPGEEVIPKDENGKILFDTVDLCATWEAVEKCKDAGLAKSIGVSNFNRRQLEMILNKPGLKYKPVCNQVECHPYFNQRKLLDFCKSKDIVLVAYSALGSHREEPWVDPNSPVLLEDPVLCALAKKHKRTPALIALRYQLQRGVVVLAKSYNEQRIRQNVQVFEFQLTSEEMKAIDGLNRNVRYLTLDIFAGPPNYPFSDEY

[2] = biological target: T2, FLAG-tagged AKR1C1 fragment containing the first 160 residues (human) (UniProt Q04828); test: co-IP; 293T cells co-transfected with FLAG-tagged AKR1C1 (wild type or truncation mutants) and HA-tagged CYP1B1 (wild type or truncation mutants); immunoprecipitation with Flag antibody (Fig. 5D) or HA antibody (Fig. 5E), western blot
T2 sequence: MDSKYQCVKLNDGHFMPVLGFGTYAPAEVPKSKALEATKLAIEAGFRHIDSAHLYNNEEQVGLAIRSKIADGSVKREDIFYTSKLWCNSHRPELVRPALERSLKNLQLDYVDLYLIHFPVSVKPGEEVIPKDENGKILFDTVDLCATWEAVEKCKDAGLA

[3] = biological target: T3, wildtype FLAG-tagged AKR1C1 (human) (UniProt Q04828); test: as above
T3 sequence: T1 sequence

[4] = biological target: T4, HA-tagged CYP1B1 fragment containing amino acid residues 161-310 (UniProt Q16678); test: as above
T4 sequence: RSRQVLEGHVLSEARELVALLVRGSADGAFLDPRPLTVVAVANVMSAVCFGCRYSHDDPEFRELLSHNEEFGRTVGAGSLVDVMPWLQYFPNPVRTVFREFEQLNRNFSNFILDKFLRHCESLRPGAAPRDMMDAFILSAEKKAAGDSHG

B1: cytochrome P450 1B1 (CYP1B1) (enzyme, UniProt Q16678 1-543)
chain: MGTSLSPNDPWPLNPLSIQQTTLLLLLSVLATVHVGQRLLRQRRRQLRSAPPGPFAWPLIGNAAAVGQAAHLSFARLARRYGDVFQIRLGSCPIVVLNGERAIHQALVQQGSAFADRPAFASFRVVSGGRSMAFGHYSEHWKVQRRAAHSMMRNFFTRQPRSRQVLEGHVLSEARELVALLVRGSADGAFLDPRPLTVVAVANVMSAVCFGCRYSHDDPEFRELLSHNEEFGRTVGAGSLVDVMPWLQYFPNPVRTVFREFEQLNRNFSNFILDKFLRHCESLRPGAAPRDMMDAFILSAEKKAAGDSHGGGARLDLENVPATITDIFGASQDTLSTALQWLLLLFTRYPDVQTRVQAELDQVVGRDRLPCMGDQPNLPYVLAFLYEAMRFSSFVPVTIPHATTANTSVLGYHIPKDTVVFVNQWSVNHDPLKWPNPENFDPARFLDKDGLINKDLTSRVMIFSVGKRRCIGEELSKMQLFLFISILAHQCDFRANPNEPAKMNFSYGLTIKPKSFKVNVTLRESMELLDSAVQNLQAKETCQ
binding [1]: binds

B2: wildtype HA-tagged CYP1B1 (enzyme, UniProt Q16678 1-543)
chain: B1 chain
binding [2]: binds
binding [3]: binds

B3: wildtype FLAG-tagged AKR1C1 (enzyme, UniProt Q04828 1-323)
chain: T1 sequence
binding [4]: binds
